In the assay the target is T1, CREB3 regulatory factor (CREBRF)-FLAG (human) (UniProt Q8IUR6).
T1 sequence: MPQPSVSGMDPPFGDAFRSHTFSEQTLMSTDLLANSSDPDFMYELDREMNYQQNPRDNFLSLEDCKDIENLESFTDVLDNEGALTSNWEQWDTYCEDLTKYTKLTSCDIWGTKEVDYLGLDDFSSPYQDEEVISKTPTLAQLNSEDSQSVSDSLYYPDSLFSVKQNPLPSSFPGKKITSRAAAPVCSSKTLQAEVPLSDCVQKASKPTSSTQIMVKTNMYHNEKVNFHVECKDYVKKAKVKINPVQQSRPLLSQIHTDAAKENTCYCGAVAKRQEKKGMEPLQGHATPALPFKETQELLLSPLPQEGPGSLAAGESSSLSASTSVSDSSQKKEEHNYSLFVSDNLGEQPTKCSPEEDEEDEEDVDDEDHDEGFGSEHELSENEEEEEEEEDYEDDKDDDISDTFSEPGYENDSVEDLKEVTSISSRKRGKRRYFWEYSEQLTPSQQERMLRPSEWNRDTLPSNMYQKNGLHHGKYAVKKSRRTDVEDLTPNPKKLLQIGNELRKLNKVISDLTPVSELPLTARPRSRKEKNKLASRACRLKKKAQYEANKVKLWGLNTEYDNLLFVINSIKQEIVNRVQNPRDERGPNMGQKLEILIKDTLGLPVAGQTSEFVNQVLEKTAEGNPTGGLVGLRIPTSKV
The assay is described as follows: co-IP.

Sequences of proteins named here, by UniProt entry; tags and fusion partners are left off.
UniProt Q86UE8: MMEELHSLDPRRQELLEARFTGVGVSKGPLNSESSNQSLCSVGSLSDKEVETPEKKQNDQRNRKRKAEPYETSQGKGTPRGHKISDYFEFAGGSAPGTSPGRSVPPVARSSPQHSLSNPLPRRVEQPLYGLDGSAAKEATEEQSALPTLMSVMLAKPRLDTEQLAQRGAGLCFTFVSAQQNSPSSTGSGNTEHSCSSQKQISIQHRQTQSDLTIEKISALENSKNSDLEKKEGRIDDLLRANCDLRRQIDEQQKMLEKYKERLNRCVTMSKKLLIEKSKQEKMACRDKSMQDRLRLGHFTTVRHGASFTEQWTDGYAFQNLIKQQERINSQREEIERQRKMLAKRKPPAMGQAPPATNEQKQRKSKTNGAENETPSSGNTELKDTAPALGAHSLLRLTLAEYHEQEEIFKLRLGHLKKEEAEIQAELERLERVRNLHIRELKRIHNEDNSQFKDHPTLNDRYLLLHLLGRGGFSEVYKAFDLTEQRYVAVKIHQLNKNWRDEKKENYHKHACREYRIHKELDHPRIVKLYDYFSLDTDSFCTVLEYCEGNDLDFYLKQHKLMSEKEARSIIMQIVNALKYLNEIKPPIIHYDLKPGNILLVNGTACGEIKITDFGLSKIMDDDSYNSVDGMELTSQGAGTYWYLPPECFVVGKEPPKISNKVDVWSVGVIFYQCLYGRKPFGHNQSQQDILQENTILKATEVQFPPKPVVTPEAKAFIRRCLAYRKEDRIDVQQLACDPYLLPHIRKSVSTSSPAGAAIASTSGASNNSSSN

These are yes or no findings as the source states them, for the method shown. Binding seen in cells or lysates may run through a third protein. Some binding calls cover weakened binding; strength is not graded here. Tags and fused reporters may be left off the sequences shown.

Turning to “Tousled-like kinase 2 (TLK2) (from UniProt Q86UE8 1-772) (enzyme)”, the binding entry is “binds”.
